# Cleaved PARP in drug-treated melanoma cells

All values are for the listed drug together with MK-1775 (100 nM): C=CCn1c(=O)c2cnc(Nc3ccc(N4CCN(C)CC4)cc3)nc2n1-c1cccc(C(C)(C)O)n1

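Human melanoma cell lines in 1,536-well plates were treated with two drugs together for 72 h, then fixed, stained and imaged. The read-out is the fraction of cleaved-PARP-positive nuclei, in % of that fraction in the DMSO control; 200 means twice the control level of this apoptosis marker. Every drug was used at one fixed concentration, the higher of two screened. The file gives one value for each pair and line, without errors, so small differences may be noise. The marker varies much from line to line, for technical or biological reasons.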 Only some of the drugs and lines screened are listed, without regard to their results. An entry leaves out what has no value listed here.

COc1ccc2c(c1)CCC1C2CCC2(C)C(NCCCCCCN3C(=O)C=CC3=O)CCC12 (stereo not given) at 2000 nM gave MZ2-MEL: 141; WM3526: 240; A101D: 578; LB2518-MEL: 95.5. Results for Cn1cnc2c(F)c(Nc3ccc(Br)cc3Cl)c(C(=O)NOCCO)cc21 at 75 nM are MZ2-MEL: 579; WM3526: 554; A101D: 137; LB2518-MEL: 506. For CCCCCCCCCCCC1=C(O)C(=O)C=C(O)C1=O at 6000 nM the values were MZ2-MEL: 37.5; WM3526: 251; A101D: 247; LB2518-MEL: 123.

CC(C)CCN1c2nc(Nc3cc(F)c(O)c(F)c3)ncc2N(C)C(=O)C1C (stereo not given) at 1000 nM gave MZ2-MEL: 38.4; WM3526: 101; A101D: 315; LB2518-MEL: 88.1. For O=S(=O)(c1ccccc1)N(CC(F)(F)F)c1ccc(C(O)(C(F)(F)F)C(F)(F)F)cc1 at 7000 nM the values were MZ2-MEL: 33.8; WM3526: 137; A101D: 247; LB2518-MEL: 106. Results for Nc1nc(F)nc2c1ncn2[C@@H]1O[C@H](CO)[C@@H](O)[C@@H]1O at 1000 nM are MZ2-MEL: 78.4; WM3526: 3470; A101D: 94.6; LB2518-MEL: 184.

With N.N.[Cl][Pt][Cl] at 8000 nM the screen read WM3526: 184; A101D: 593. With NC(=O)c1ccc(N(C(N)=O)c2c(F)cccc2F)nc1-c1ccc(F)cc1F at 2000 nM the screen read MZ2-MEL: 106; WM3526: 263; A101D: 163; LB2518-MEL: 58.3. For COc1cc(N2CCC(N3CCN(C)CC3)CC2)ccc1Nc1ncc(Cl)c(Nc2ccccc2S(=O)(=O)C(C)C)n1 at 400 nM the values were MZ2-MEL: 81.1; WM3526: 589; A101D: 130; LB2518-MEL: 109.

With O=C(Nc1cccc(Cl)c1)Nc1ncc(CCNc2ncnc3ccsc23)s1 at 4 nM the screen read MZ2-MEL: 204; WM3526: 161; A101D: 173; LB2518-MEL: 335. Results for C/C(O)=C(\C#N)C(=O)Nc1cc(Br)ccc1Br at 10000 nM are WM3526: 140; A101D: 78.8. Results for C[C@]12O[C@H](C[C@]1(O)CO)n1c3ccccc3c3c4c(c5c6ccccc6n2c5c31)CNC4=O at 20 nM are MZ2-MEL: 77.4; WM3526: 545; A101D: 249; LB2518-MEL: 423.

With O=C(Nc1cc(C(F)(F)F)cc(C(F)(F)F)c1)c1cc(Cl)ccc1O at 80 nM the screen read WM3526: 258; A101D: 55.8. With Cc1cc(Nc2cc(N3CCN(C)CC3)nc(/C=C/c3ccccc3)n2)n[nH]1 at 200 nM the screen read MZ2-MEL: 126; WM3526: 227; A101D: 251; LB2518-MEL: 93.8. Cc1ccc(Nc2nccc(N(C)c3ccc4c(C)n(C)nc4c3)n2)cc1S(N)(=O)=O at 2000 nM gave WM3526: 210; A101D: 38.4.

With O=C(O)c1ccc2c(c1)nc(Nc1cccc(Cl)c1)c1ccncc12 at 2000 nM the screen read WM3526: 380; A101D: 206. Oc1cc(-c2nc(-c3ccccc3)[nH]c2-c2ccncc2)ccc1Cl at 1000 nM gave MZ2-MEL: 67.6; WM3526: 396; A101D: 58.1; LB2518-MEL: 104. CC(C)C[C@H](NC(=O)[C@H](Cc1ccccc1)NC(=O)c1cnccn1)B(O)O at 5 nM gave MZ2-MEL: 9780; WM3526: 1680; A101D: 185; LB2518-MEL: 860.

Results for Nc1ncn([C@H]2C[C@H](O)[C@@H](CO)O2)c(=O)n1 at 500 nM are MZ2-MEL: 155; WM3526: 200; A101D: 268; LB2518-MEL: 89.5. Results for CCCCCCCCCCCCCCCCCCOP(=O)([O-])OC1CC[N+](C)(C)CC1 at 2000 nM are MZ2-MEL: 69.2; WM3526: 93.8; A101D: 228; LB2518-MEL: 183. For O=C(/C=C/c1cccnc1)NCCCCC1CCN(C(=O)c2ccccc2)CC1 at 50 nM the values were MZ2-MEL: 246; WM3526: 84.6; A101D: 286; LB2518-MEL: 826.

With Cn1nnc2c(C(N)=O)ncn2c1=O at 10000 nM the screen read MZ2-MEL: 66.6; WM3526: 302; A101D: 182; LB2518-MEL: 205. Results for COc1cc(Nc2ncc(F)c(Nc3ccc4c(n3)NC(=O)C(C)(C)O4)n2)cc(OC)c1OC at 2000 nM are MZ2-MEL: 137; WM3526: 336; A101D: 519; LB2518-MEL: 234. For CNC(=O)c1cc(Oc2ccc(NC(=O)Nc3ccc(Cl)c(C(F)(F)F)c3)cc2)ccn1 at 2000 nM the values were MZ2-MEL: 78.5; WM3526: 91.9; A101D: 70.0; LB2518-MEL: 109.

For O=C(O)[C@@H]1[O][Sb](=[O])([O][Sb]2(=[O])[O][C@H]([C@H](O)CO)[C@H](O)[C@H](C(=O)O)[O]2)[O][C@H]([C@H](O)CO)[C@@H]1O (stereo not given in full) at 10000 nM the values were MZ2-MEL: 110; WM3526: 259; A101D: 247; LB2518-MEL: 93.4. With O=C(Oc1ccc([N+](=O)[O-])cc1)N1CCC(C(O)(c2ccc3c(c2)OCO3)c2ccc3c(c2)OCO3)CC1 at 5000 nM the screen read MZ2-MEL: 463; WM3526: 101; A101D: 180; LB2518-MEL: 210. COc1cc2c(Oc3ccc4[nH]c(C)cc4c3F)ncnc2cc1OCCCN1CCCC1 at 2000 nM gave MZ2-MEL: 143; WM3526: 251; A101D: 102; LB2518-MEL: 116.

For Cc1cc([N+](=O)[O-])ccc1NS(=O)(=O)c1cc(Cl)ccc1Cl at 5000 nM the values were WM3526: 102; A101D: 64.2. With Cn1c(=O)n(-c2ccc(C(C)(C)C#N)cc2)c2c3cc(-c4cnc5ccccc5c4)ccc3ncc21 at 20 nM the screen read MZ2-MEL: 157; WM3526: 399; A101D: 233; LB2518-MEL: 170. Results for CCN(CC)CCCCNc1ncc2cc(-c3cc(OC)cc(OC)c3)c(NC(=O)NC(C)(C)C)nc2n1 at 500 nM are MZ2-MEL: 76.7; WM3526: 143; A101D: 148; LB2518-MEL: 136.

For CCN(CC)CCNC(=O)c1c(C)[nH]c(/C=C2\C(=O)Nc3ccc(F)cc32)c1C at 2000 nM the values were MZ2-MEL: 182; WM3526: 601; A101D: 119; LB2518-MEL: 182. For CN(C)S(=O)(=O)c1ccc2c(c1)/C(=C/c1cc3c([nH]1)CCCC3)C(=O)N2 at 2000 nM the values were MZ2-MEL: 229; WM3526: 88.0; A101D: 111; LB2518-MEL: 93.8. With C=CCNC1=C2C[C@@H](C)C[C@H](OC)[C@H](O)[C@@H](C)/C=C(\C)[C@H](OC(N)=O)[C@@H](OC)/C=C\C=C(/C)C(=O)NC(=CC1=O)C2=O at 10 nM the screen read MZ2-MEL: 281; WM3526: 363; A101D: 459; LB2518-MEL: 286.

For CC1(C)NC(=O)N(c2ccc([N+](=O)[O-])c(C(F)(F)F)c2)C1=O at 5000 nM the values were MZ2-MEL: 57.9; WM3526: 170; A101D: 138; LB2518-MEL: 69.1. Results for O=C(O)C(=O)Nc1sc2c(c1C(=O)O)CCNC2 at 8330 nM are MZ2-MEL: 213; WM3526: 79.4; A101D: 144; LB2518-MEL: 112. N#CC[C@H](C1CCCC1)n1cc(-c2ncnc3[nH]ccc23)cn1 at 5000 nM gave WM3526: 228; A101D: 208.

The first 4 entries again:

Second drug	MZ2-MEL	WM3526	A101D	LB2518-MEL
COc1ccc2c(c1)CCC1C2CCC2(C)C(NCCCCCCN3C(=O)C=CC3=O)CCC12 (stereo not given) at 2000 nM	141	240	578	95.5
Cn1cnc2c(F)c(Nc3ccc(Br)cc3Cl)c(C(=O)NOCCO)cc21 at 75 nM	579	554	137	506
CCCCCCCCCCCC1=C(O)C(=O)C=C(O)C1=O at 6000 nM	37.5	251	247	123
CC(C)CCN1c2nc(Nc3cc(F)c(O)c(F)c3)ncc2N(C)C(=O)C1C (stereo not given) at 1000 nM	38.4	101	315	88.1

Data from the primary screen of doi:10.1371/journal.pone.0140310, rounded.